This note sets out measurements from patent US20060063727, “Tr4/tr2 response elements” (published 2006).

The term Kd denotes the constant that tells how readily two partners part at equilibrium.

Where a protein sequence is shown, tags need not be part of it. Construct, isoform or probe ends are uncertain for at least one entry.

Data set [1] has as its target T1, TR4 orphan receptor (NR2C2) (Homo sapiens) (UniProt P49116).
T1 sequence: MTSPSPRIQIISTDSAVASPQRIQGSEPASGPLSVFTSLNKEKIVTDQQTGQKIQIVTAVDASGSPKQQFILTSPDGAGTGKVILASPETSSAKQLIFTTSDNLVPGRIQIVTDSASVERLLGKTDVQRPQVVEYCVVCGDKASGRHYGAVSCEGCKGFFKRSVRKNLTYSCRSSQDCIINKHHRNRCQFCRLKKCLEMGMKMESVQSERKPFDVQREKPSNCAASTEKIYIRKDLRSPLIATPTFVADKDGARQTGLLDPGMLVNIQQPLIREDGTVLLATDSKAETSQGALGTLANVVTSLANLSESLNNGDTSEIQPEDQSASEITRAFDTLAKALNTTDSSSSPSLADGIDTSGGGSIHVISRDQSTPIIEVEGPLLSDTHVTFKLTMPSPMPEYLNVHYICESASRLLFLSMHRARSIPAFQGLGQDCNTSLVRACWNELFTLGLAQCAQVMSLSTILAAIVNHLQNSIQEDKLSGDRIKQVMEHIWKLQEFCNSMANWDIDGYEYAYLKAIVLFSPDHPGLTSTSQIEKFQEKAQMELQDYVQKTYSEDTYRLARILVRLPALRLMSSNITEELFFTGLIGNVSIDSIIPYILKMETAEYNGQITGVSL
The data set can be described thus: activity in cells. As to conditions: protein in cells, only the site is given.

The target in data set [2] is T2, TR2 orphan receptor (TR2-11, NR2C1) (Homo sapiens) (UniProt P13056).
T2 sequence: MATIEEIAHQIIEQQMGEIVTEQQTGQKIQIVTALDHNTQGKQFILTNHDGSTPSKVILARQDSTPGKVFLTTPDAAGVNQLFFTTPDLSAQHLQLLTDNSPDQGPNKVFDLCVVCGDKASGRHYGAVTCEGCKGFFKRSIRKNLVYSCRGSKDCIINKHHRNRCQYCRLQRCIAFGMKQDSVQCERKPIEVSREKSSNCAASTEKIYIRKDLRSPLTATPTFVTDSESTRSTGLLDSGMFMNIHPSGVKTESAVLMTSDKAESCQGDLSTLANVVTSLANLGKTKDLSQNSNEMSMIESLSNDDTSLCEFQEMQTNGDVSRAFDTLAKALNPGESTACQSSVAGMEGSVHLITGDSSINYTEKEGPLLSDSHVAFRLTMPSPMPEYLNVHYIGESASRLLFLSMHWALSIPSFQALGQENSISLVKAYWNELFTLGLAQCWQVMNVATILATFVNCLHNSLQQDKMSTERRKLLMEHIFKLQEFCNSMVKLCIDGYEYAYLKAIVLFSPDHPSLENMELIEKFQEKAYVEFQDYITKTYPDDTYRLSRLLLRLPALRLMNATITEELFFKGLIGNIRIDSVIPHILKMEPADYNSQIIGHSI
Description: activity in cells. The conditions noted are these: protein in cells, only the site is given.

Data set [3] addresses T1, TR4 orphan receptor (NR2C2) (Homo sapiens). The data set can be described thus: EMSA. As to conditions: Scatchard; 25 mM Tris pH 8.0, 50 mM KCl, poly(dI.dC); protein translated in vitro; label: 32P. In general terms: A gel shift assay detects complexes by their altered migration in electrophoresis.

On to “GGAAAAAGGTCAGG (double strand) [-228TR4RE]”, for which, in data set [1] (significant luciferase repression, Y-1 cells), the “activity on this sequence” value is reported as “active”.

The sequence “GGTTCACCGAAAGTTCA (double strand) [RARE of RARbeta]” returned an activity on this sequence (% suppression) in data set [2] (RA-induced pRARbeta-CAT, 2 ug pCMV-TR2, HaCaT cells) of 44.7.

Turning to “GTCGACAGGGGACCAGGACAAAGGTCACGTTCGGGAGTCGAC (double strand) [PPRE (rat acyl-CoA oxidase)]”, in data set [1] (Wy-14643-induced PPRE3-tk-LUC with PPARalpha, HaCaT cells, maximal), the activity on this sequence (% suppression) came to 95. The activity on this sequence (% (repressed to)) in data set [2] (Wy-14643-induced PPRE3-tk-LUC with PPARalpha, HaCaT cells, suppression disappears at higher TR2) came to 59.8. In data set [3], this sequence yielded a Kd of 340 pM.
